Test results from the supplement of paper PMC6078165.
Values are relative to the signal before dosing, not to a vehicle control; the signal also falls without drug.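 Fibroblast labels name human fibroblasts: mostly primary ones from tissues such as uterus (C12385, HUF), lung (H6013), bone (Hs27A), adrenal (HADF) and skin (WS1), plus mammary HMF and breast cancer-associated Hs343T. The cancer cells are basal-like or mesenchymal-like triple-negative breast cancer lines. The paper calls a changed response a hit when it shifts by more than 3x the replicate standard deviation. The tissue of the other fibroblasts is not given here.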

Tested on: Hs578T
Test: relative JC-1 red fluorescence (viability) vs pre-drug, coculture with fibroblast (fraction); higher = more viable cancer cells
Method: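 JC-1 labelled TNBC cells cocultured 1:1 (1,500 cells each) with CellTrace Violet stained primary or stromal fibroblasts in 384-well plates in FluoroBrite medium, treated with one of 42 anticancer drugs at 0.1, 1, 10 or 100 uM. JC-1 red fluorescence (mitochondrial integrity in cancer cells only) was read by plate reader every 8 h for 72 h. Values are normalised to each well's pre-drug value. The stock of one drug was tenfold lower, so its dose labels may be too high.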

CCN(CC)CCNC(=O)c1c(C)[nH]c(/C=C2\C(=O)Nc3ccc(F)cc32)c1C [Sunitinib]
relative JC-1 red fluorescence
Details | 8 h | 16 h | 24 h | 32 h | 40 h | 48 h | 56 h | 64 h | 72 h
0.1 µM | 0.8759 | 0.8033 | 0.77 | 0.737 | 0.696 | 0.661 | 0.649 | 0.613 | 0.606
1 µM | 0.879 | 0.796 | 0.754 | 0.718 | 0.667 | 0.625 | 0.6089 | 0.56854 | 0.539
10 µM | 0.982 | 0.557 | 0.438 | 0.381 | 0.333 | 0.293 | 0.263 | 0.233 | 0.223
100 µM | 0.458 | 0.372 | 0.373 | 0.383 | 0.353 | 0.328 | 0.323 | 0.296 | 0.277

relative JC-1 red fluorescence
Details | 8 h | 16 h | 24 h | 32 h | 40 h | 48 h | 56 h | 64 h | 72 h
0.1 µM, coculture fibroblast: C12385 | 0.799 | 0.728 | 0.702 | 0.618 | 0.562 | 0.541 | 0.5153 | 0.52139 | 0.5226
0.1 µM, coculture fibroblast: H6013 | 0.819 | 0.7884 | 0.749 | 0.732 | 0.716 | 0.717 | 0.71 | 0.712 | 0.691
0.1 µM, coculture fibroblast: H6019 | 0.749 | 0.692 | 0.706 | 0.622 | 0.602 | 0.594 | 0.573 | 0.568 | 0.55
0.1 µM, coculture fibroblast: H6076 | 0.889 | 0.839 | 0.797 | 0.769 | 0.731 | 0.734 | 0.719 | 0.713 | 0.707
0.1 µM, coculture fibroblast: H6231 | 0.888 | 0.8207 | 0.758 | 0.713 | 0.649 | 0.626 | 0.587 | 0.57 | 0.565
0.1 µM, coculture fibroblast: HADF | 0.858 | 0.819 | 0.764 | 0.728 | 0.704 | 0.684 | 0.655 | 0.656 | 0.646
0.1 µM, coculture fibroblast: HCFa | 0.812 | 0.777 | 0.749 | 0.716 | 0.689 | 0.678 | 0.655 | 0.656 | 0.621
0.1 µM, coculture fibroblast: HCPF | 0.903 | 0.835 | 0.792 | 0.769 | 0.722 | 0.70312 | 0.7 | 0.674 | 0.661
0.1 µM, coculture fibroblast: HHSteC | 0.847 | 0.819 | 0.788 | 0.751 | 0.718 | 0.695 | 0.673 | 0.66 | 0.632
0.1 µM, coculture fibroblast: HMF | 0.835 | 0.799 | 0.7799 | 0.78 | 0.74 | 0.735 | 0.719 | 0.708 | 0.709
0.1 µM, coculture fibroblast: HPFa | 0.8927 | 0.841 | 0.801 | 0.758 | 0.731 | 0.715 | 0.685 | 0.674 | 0.648
0.1 µM, coculture fibroblast: HUF | 0.852 | 0.733 | 0.716 | 0.626 | 0.579 | 0.562 | 0.539 | 0.542 | 0.538
0.1 µM, coculture fibroblast: Hs27A | 0.85 | 0.794 | 0.754 | 0.72 | 0.666 | 0.655 | 0.625 | 0.623 | 0.579
0.1 µM, coculture fibroblast: Hs343T | 0.891 | 0.818 | 0.79 | 0.767 | 0.719 | 0.707 | 0.681 | 0.666 | 0.67
0.1 µM, coculture fibroblast: WS1 | 0.801 | 0.73 | 0.6985 | 0.6172 | 0.577 | 0.56 | 0.543 | 0.542 | 0.544
1 µM, coculture fibroblast: C12385 | 0.795 | 0.7124 | 0.685 | 0.6053 | 0.555 | 0.534 | 0.518 | 0.506 | 0.507
1 µM, coculture fibroblast: H6013 | 0.841 | 0.83 | 0.828 | 0.821 | 0.814 | 0.818 | 0.807 | 0.808 | 0.79
1 µM, coculture fibroblast: H6019 | 0.7614 | 0.697 | 0.673 | 0.587 | 0.546 | 0.519 | 0.496 | 0.477 | 0.446
1 µM, coculture fibroblast: H6076 | 0.899 | 0.856 | 0.824 | 0.801 | 0.769 | 0.773 | 0.753 | 0.737 | 0.729
1 µM, coculture fibroblast: H6231 | 0.914 | 0.889 | 0.842 | 0.79 | 0.732 | 0.701 | 0.664 | 0.64 | 0.625
1 µM, coculture fibroblast: HADF | 0.865 | 0.812 | 0.769 | 0.739 | 0.726 | 0.706 | 0.679 | 0.673 | 0.652
1 µM, coculture fibroblast: HCFa | 0.84 | 0.831 | 0.814 | 0.786 | 0.758 | 0.759 | 0.732 | 0.73 | 0.694
1 µM, coculture fibroblast: HCPF | 0.869 | 0.81 | 0.778 | 0.751 | 0.709 | 0.693 | 0.679 | 0.637 | 0.617
1 µM, coculture fibroblast: HHSteC | 0.839 | 0.797 | 0.767 | 0.73 | 0.699 | 0.676 | 0.66 | 0.64 | 0.611
1 µM, coculture fibroblast: HMF | 0.89 | 0.855 | 0.816 | 0.794 | 0.75 | 0.728 | 0.7 | 0.669 | 0.652
1 µM, coculture fibroblast: HPFa | 0.87 | 0.804 | 0.751 | 0.707 | 0.674 | 0.643 | 0.609 | 0.5902 | 0.5539
1 µM, coculture fibroblast: HUF | 0.828 | 0.7079 | 0.7124 | 0.6288 | 0.5907 | 0.561 | 0.54 | 0.537 | 0.534
1 µM, coculture fibroblast: Hs27A | 0.881 | 0.847 | 0.81 | 0.775 | 0.721 | 0.714 | 0.668 | 0.672 | 0.627
1 µM, coculture fibroblast: Hs343T | 0.864 | 0.784 | 0.7517 | 0.739 | 0.689 | 0.672 | 0.654 | 0.634 | 0.637
1 µM, coculture fibroblast: WS1 | 0.776 | 0.706 | 0.7024 | 0.63 | 0.586 | 0.576 | 0.5581 | 0.5528 | 0.552
10 µM, coculture fibroblast: C12385 | 0.776 | 0.655 | 0.662 | 0.553 | 0.49 | 0.441 | 0.392 | 0.366 | 0.343
10 µM, coculture fibroblast: H6013 | 0.891 | 0.758 | 0.713 | 0.658 | 0.53 | 0.436 | 0.37 | 0.333 | 0.2943
10 µM, coculture fibroblast: H6019 | 0.822 | 0.777 | 0.746 | 0.693 | 0.677 | 0.676 | 0.667 | 0.645 | 0.615
10 µM, coculture fibroblast: H6076 | 0.94 | 0.618 | 0.63 | 0.604 | 0.552 | 0.539 | 0.484 | 0.473 | 0.446
10 µM, coculture fibroblast: H6231 | 0.819 | 0.902 | 0.95 | 0.905 | 0.816 | 0.766 | 0.737 | 0.728 | 0.722
10 µM, coculture fibroblast: HADF | 0.95 | 0.671 | 0.545 | 0.464 | 0.415 | 0.3628 | 0.3276 | 0.302 | 0.271
10 µM, coculture fibroblast: HCFa | 0.915 | 0.841 | 0.764 | 0.692 | 0.589 | 0.541 | 0.499 | 0.427 | 0.361
10 µM, coculture fibroblast: HCPF | 0.96 | 0.732 | 0.624 | 0.519 | 0.416 | 0.3707 | 0.324 | 0.259 | 0.227
10 µM, coculture fibroblast: HHSteC | 0.871 | 0.707 | 0.63 | 0.486 | 0.388 | 0.324 | 0.268 | 0.219 | 0.185
10 µM, coculture fibroblast: HMF | 0.897 | 0.857 | 0.913 | 0.887 | 0.839 | 0.815 | 0.777 | 0.7584 | 0.7405
10 µM, coculture fibroblast: HPFa | 0.961 | 0.791 | 0.833 | 0.675 | 0.61 | 0.586 | 0.71 | 0.676 | 0.639
10 µM, coculture fibroblast: HUF | 0.8885 | 0.844 | 0.817 | 0.74 | 0.709 | 0.659 | 0.585 | 0.508 | 0.438
10 µM, coculture fibroblast: Hs27A | 0.95 | 0.796 | 0.871 | 0.932 | 0.863 | 0.922 | 0.741 | 0.637 | 0.504
10 µM, coculture fibroblast: Hs343T | 0.83273 | 0.658 | 0.582 | 0.575 | 0.544 | 0.51 | 0.444 | 0.334 | 0.274
10 µM, coculture fibroblast: WS1 | 0.767 | 0.72 | 0.697 | 0.643 | 0.59 | 0.54 | 0.465 | 0.423 | 0.347
100 µM, coculture fibroblast: C12385 | 0.471 | 0.243 | 0.241 | 0.188 | 0.164 | 0.159 | 0.137 | 0.121 | 0.114
100 µM, coculture fibroblast: H6013 | 0.301 | 0.255 | 0.241 | 0.226 | 0.21 | 0.21 | 0.184 | 0.172 | 0.151
100 µM, coculture fibroblast: H6019 | 0.366 | 0.26 | 0.282 | 0.221 | 0.21 | 0.212 | 0.203 | 0.189 | 0.178
100 µM, coculture fibroblast: H6076 | 0.417 | 0.355 | 0.34 | 0.341 | 0.3165 | 0.309 | 0.297 | 0.279 | 0.264
100 µM, coculture fibroblast: H6231 | 0.435 | 0.359 | 0.357 | 0.37 | 0.333 | 0.339 | 0.325 | 0.319 | 0.312
100 µM, coculture fibroblast: HADF | 0.4 | 0.364 | 0.352 | 0.333 | 0.313 | 0.313 | 0.283 | 0.268 | 0.241
100 µM, coculture fibroblast: HCFa | 0.433 | 0.362 | 0.339 | 0.33 | 0.312 | 0.316 | 0.296 | 0.277 | 0.243
100 µM, coculture fibroblast: HCPF | 0.451 | 0.357 | 0.349 | 0.357 | 0.314 | 0.307 | 0.305 | 0.272 | 0.253
100 µM, coculture fibroblast: HHSteC | 0.439 | 0.378 | 0.363 | 0.348 | 0.3206 | 0.312 | 0.293 | 0.278 | 0.244
100 µM, coculture fibroblast: HMF | 0.398 | 0.372 | 0.377 | 0.407 | 0.39 | 0.4 | 0.412 | 0.415 | 0.412
100 µM, coculture fibroblast: HPFa | 0.61 | 0.333 | 0.313 | 0.292 | 0.285 | 0.279 | 0.256 | 0.248 | 0.216
100 µM, coculture fibroblast: HUF | 0.648 | 0.359 | 0.337 | 0.27 | 0.242 | 0.234 | 0.204 | 0.188 | 0.177
100 µM, coculture fibroblast: Hs27A | 0.386 | 0.266 | 0.259 | 0.262 | 0.241 | 0.261 | 0.239 | 0.239 | 0.223
100 µM, coculture fibroblast: Hs343T | 0.348 | 0.301 | 0.306 | 0.316 | 0.294 | 0.297 | 0.29 | 0.292 | 0.297
100 µM, coculture fibroblast: WS1 | 0.344 | 0.309 | 0.278 | 0.213 | 0.186 | 0.194 | 0.174 | 0.162 | 0.155
